{"source": "patent US9422340B2", "about": "“Macrocyclic compounds useful as inhibitors of histone deacetylases” (The Regents of the University of Colorado, A Body Corporate, priority 2010, dated 2016)", "key": {"HCT116 cells": {"test_system": "HCT116 cells", "experiment": "DNA microarray gene expression profiles", "format": "cell-based, human", "details": "SAHA (200 μM), Largazole (20 nM), Example 1 (20 nM)", "description": "FIGS. 9A to C present DNA microarray data showing that SAHA, Largazole and its selected analog example 1 cause distinct changes in gene expression profiles in the HCT 116 cancer cell line. FIG. 9A illustrates hierarchical clustering and heatmaps of changes in gene expression profiles in the HCT116 cells with indicated treatment. FIGS. 9B and 9C illustrate Venn diagrams showing unique and shared gene sets whose expression levels changed by more than 2 fold upon exposure to the indicated treatment at 6 hr (FIG. 9B) and 24 hr (FIG. 9C).\nExpression values files for each sample were generated using the Robust Multichip Average (RMA) algorithm. Differential expression was determined using the R software package limma to generate linear models and empirical Bayesian statistics. Genes were considered differentially expressed if the P value, adjusted for multiple testing using the Benjamini and Hochberg method, was ≦5% and the log-2 fold change was […].\nHCT116 cells were seeded in triplicate at approximately 60% confluency. […] Total RNA concentration was determined using a Lambda 800 UV/VIS spectrometer (PerkinElmer, Waltham, Mass.) and processed for labeling hybridization, wash, and scan at University of Colorado-Denver Health Sciences Center. […] Differential expression was determined using the R software package limma to generate linear models and empirical Bayesian statistics. […]"}, "[1]": {"test_system": "acetylated histone H3 in HCT116 cells", "experiment": "Western blot of histone H3 hyperacetylation", "format": "cell-based, human"}}}
{"molecule": "O=C(CCCCCCC(=O)Nc1ccccc1)NO", "note": "[SAHA, suberoylanilide hydroxamic acid]", "values": [{"measurement": "# of Genes 2 Fold-Change in comparison to DMSO control", "setting": "HCT116 cells; 6 hr", "value": 338}, {"measurement": "# of Genes 2 Fold-Change in comparison to DMSO control", "setting": "HCT116 cells; 24 hr", "value": 34}, {"measurement": "Inhibition of H3 deacetylation over time (FIG. 8A)", "setting": "[1]; 10 nM largazole or 200 nM SAHA, anti-acetyl-H3 immunoblot", "value": "inhibit H3 deacetylation in a time-dependent manner"}, {"measurement": "Deacetylase inhibition, dose response of H3 acetylation (FIG. 8B)", "setting": "[1]; 8 hours, concentrations ranging from 1/μM to 100 nM", "value": "dose-dependent fashion"}]}
